Measured data: PubChem BioAssay AID686938 (Drosophila RNAi Screening Center, 2013)

Aim: 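Looking for CRAC channel components and the factors controlling them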 (primary screen)
Cell system: Drosophila S2R+ cells
Reagent: long dsRNA against Drosophila genes, about 0.25 µg dsRNA per well, roughly 10,000 cells
Time to read-out: 5 days of knock-down before the calcium assay
Challenge: thapsigargin (SERCA pump blocker) to empty calcium stores; entry signal taken 4 min after adding it
Measurement: 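Per-well fluo-4 fluorescence in two replicates, unnormalised, measured in resting cells and 4 min after store depletion by the SERCA blocker thapsigargin; ratio of the two present in few wells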
Scale: calcium entry signal: higher = stronger calcium signal after store depletion; resting calcium signal: higher = higher resting calcium signal
Units: calcium entry signal in fluorescence units; resting calcium signal in fluorescence units
Rule for the call: 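Hit if the duplicate-averaged plate z-score for entry over resting signal is under −3; wells with weak total dye signal (Fmax z < −2) or more than 5 off-targets removed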
Meaning of the calls: active = strongly reduced calcium entry; inactive = no strong reduction
The deposit covers about 23,000 reagents; shown is a random part of those with a known target gene and a result. Of all reagents, 75 (0.33%) got an active call. 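Raw plate signals without normalisation; calls rest on plate z-scores that were not deposited; ratio present for only 364 wells.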 Unmarked entries are inactive. No sequences are given here. Not stated in the record: the dose of the treatment.

Argk1 (Arginine kinase 1) [SID104188751]
- calcium entry signal, replicate 1: 3.96e7
- calcium entry signal, replicate 2: 4.14e7
- resting calcium signal, replicate 1: 2.18e7
- resting calcium signal, replicate 2: 2.04e7

Argk1 (Arginine kinase 1) [SID104189460]
- calcium entry signal, replicate 1: 3.51e7
- calcium entry signal, replicate 2: 3.76e7
- resting calcium signal, replicate 1: 1.92e7
- resting calcium signal, replicate 2: 1.55e7

Argk1 (Arginine kinase 1) [SID104190252]
- calcium entry signal, replicate 1: 4.08e7
- calcium entry signal, replicate 2: 2.81e7
- resting calcium signal, replicate 1: 2.75e7
- resting calcium signal, replicate 2: 1.32e7

Argk1 (Arginine kinase 1) [SID104201271]
- calcium entry signal, replicate 1: 3.75e7
- calcium entry signal, replicate 2: 3.44e7
- resting calcium signal, replicate 1: 2.30e7
- resting calcium signal, replicate 2: 1.73e7

Argk1 (Arginine kinase 1) [SID104202062]
- calcium entry signal, replicate 1: 2.41e7
- calcium entry signal, replicate 2: 2.62e7
- resting calcium signal, replicate 1: 1.29e7
- resting calcium signal, replicate 2: 1.12e7

CG34370 [SID104183705]
- calcium entry signal, replicate 1: 3.08e7
- calcium entry signal, replicate 2: 4.67e7
- resting calcium signal, replicate 1: 1.46e7
- resting calcium signal, replicate 2: 1.98e7

CG34370 [SID104183934]
- calcium entry signal, replicate 1: 4.43e7
- calcium entry signal, replicate 2: 4.56e7
- resting calcium signal, replicate 1: 2.04e7
- resting calcium signal, replicate 2: 1.99e7

CG34370 [SID104183935]
- calcium entry signal, replicate 1: 4.58e7
- calcium entry signal, replicate 2: 4.68e7
- resting calcium signal, replicate 1: 2.17e7
- resting calcium signal, replicate 2: 2.02e7

CG34370 [SID104183936]
- calcium entry signal, replicate 1: 4.50e7
- calcium entry signal, replicate 2: 4.66e7
- resting calcium signal, replicate 1: 1.99e7
- resting calcium signal, replicate 2: 1.86e7

Ptr (Patched-related) [SID104184644]
- calcium entry signal, replicate 1: 4.24e7
- calcium entry signal, replicate 2: 4.37e7
- resting calcium signal, replicate 1: 2.13e7
- resting calcium signal, replicate 2: 2.01e7

Ptr (Patched-related) [SID104201237]
- calcium entry signal, replicate 1: 3.69e7
- calcium entry signal, replicate 2: 3.45e7
- resting calcium signal, replicate 1: 1.93e7
- resting calcium signal, replicate 2: 1.67e7

CG13334 [SID104186161]
- calcium entry signal, replicate 1: 3.29e7
- calcium entry signal, replicate 2: 4.05e7
- resting calcium signal, replicate 1: 1.65e7
- resting calcium signal, replicate 2: 1.83e7

Cdk1 (Cyclin-dependent kinase 1) [SID104183296]
- calcium entry signal, replicate 1: 1.59e7
- resting calcium signal, replicate 1: 1.10e7

CG43902 [SID104197642]
- calcium entry signal, replicate 1: 6.04e7
- calcium entry signal, replicate 2: 4.20e7
- resting calcium signal, replicate 1: 2.70e7
- resting calcium signal, replicate 2: 1.89e7

CG43902 [SID104197791]
- calcium entry signal, replicate 1: 4.48e7
- calcium entry signal, replicate 2: 3.80e7
- resting calcium signal, replicate 1: 2.18e7
- resting calcium signal, replicate 2: 1.96e7

Mocs1 (Molybdenum cofactor synthesis 1) [SID104191017]
- calcium entry signal, replicate 1: 3.31e7
- calcium entry signal, replicate 2: 3.86e7
- resting calcium signal, replicate 1: 1.60e7
- resting calcium signal, replicate 2: 1.68e7

CG2931 [SID104192116]
- calcium entry signal, replicate 1: 5.61e7
- calcium entry signal, replicate 2: 4.33e7
- resting calcium signal, replicate 1: 2.72e7
- resting calcium signal, replicate 2: 1.83e7

Btk (Bruton tyrosine kinase) [SID104181800]
- calcium entry signal, replicate 1: 3.04e7
- calcium entry signal, replicate 2: 5.09e7
- resting calcium signal, replicate 1: 1.43e7
- resting calcium signal, replicate 2: 1.99e7

Btk (Bruton tyrosine kinase) [SID104182458]
- calcium entry signal, replicate 1: 5.08e7
- resting calcium signal, replicate 1: 2.23e7

Btk (Bruton tyrosine kinase) [SID104201898]
- calcium entry signal, replicate 1: 4.72e7
- calcium entry signal, replicate 2: 3.75e7
- resting calcium signal, replicate 1: 2.15e7
- resting calcium signal, replicate 2: 1.52e7

mmd (mind-meld) [SID104199464]
- calcium entry signal, replicate 1: 5.57e7
- calcium entry signal, replicate 2: 3.49e7
- resting calcium signal, replicate 1: 2.73e7
- resting calcium signal, replicate 2: 1.47e7

mmd (mind-meld) [SID104199465]
- calcium entry signal, replicate 1: 4.65e7
- calcium entry signal, replicate 2: 2.98e7
- resting calcium signal, replicate 1: 2.16e7
- resting calcium signal, replicate 2: 1.34e7

mmd (mind-meld) [SID104199953]
- calcium entry signal, replicate 1: 4.27e7
- calcium entry signal, replicate 2: 2.87e7
- resting calcium signal, replicate 1: 2.02e7
- resting calcium signal, replicate 2: 1.40e7

mmd (mind-meld) [SID104202399]
- calcium entry signal, replicate 1: 4.84e7
- calcium entry signal, replicate 2: 3.23e7
- resting calcium signal, replicate 1: 2.52e7
- resting calcium signal, replicate 2: 1.45e7
